The values below come from patent US20260265396A1.

The target of this assay is His-tagged amyloid-β precursor protein (APP). As to the kind of experiment: ELISA, hybridoma supernatant. A general note: In an ELISA, binding on a coated surface is turned into a signal by an enzyme label.

No constants are given. Whether binding was seen depends on the method and setting.

B1: mouse monoclonal antibody 26D3 (antibody, mouse IgG2a, V domains shown)
VH: EVQLQQFGVELVKPGASVKISCKASGYIFTDYNMDWVKQSHGKSLEWIGDINPDYDTTSYNEKFKGKATLTVDKSSSTAYMELRSLTSEDTAVYYCARGGYSGSSYYHPMDYWGQGTSVTVSS
VL: DIVMSQSPSSLAVSVGEKITMSCKSSQSLLYSTNQKNYLAWYQQKPGQSPELLIYWASTRESGVPDRFTGSGSGTDFTLTISNVRAEDLAVYYCQQYFIYPRTFGGGTKLEIK
For B1, the binding result is “no binding”.
